# According to paper doi:10.1101/2021.04.27.441709:
# Sequences of proteins named here, by UniProt entry; tags and fusion partners are left off.
# UniProt P07355: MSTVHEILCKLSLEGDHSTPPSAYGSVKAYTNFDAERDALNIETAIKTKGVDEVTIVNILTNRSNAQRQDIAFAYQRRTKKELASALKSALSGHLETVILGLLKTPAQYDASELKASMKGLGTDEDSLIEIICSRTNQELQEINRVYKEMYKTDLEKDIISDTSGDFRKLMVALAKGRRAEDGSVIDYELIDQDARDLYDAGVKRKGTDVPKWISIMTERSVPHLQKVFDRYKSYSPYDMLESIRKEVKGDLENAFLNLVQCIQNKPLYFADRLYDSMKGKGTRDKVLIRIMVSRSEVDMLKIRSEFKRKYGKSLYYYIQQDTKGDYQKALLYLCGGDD
# No constants are given. Whether binding was seen depends on the method and setting. Binding seen in cells or lysates may run through a third protein. Some binding calls cover weakened binding; strength is not graded here. For some assays here: Sequences can lack the tags named with a protein.
# T1: ANXA7-Flag (human) (UniProt P20073)
# T1 sequence: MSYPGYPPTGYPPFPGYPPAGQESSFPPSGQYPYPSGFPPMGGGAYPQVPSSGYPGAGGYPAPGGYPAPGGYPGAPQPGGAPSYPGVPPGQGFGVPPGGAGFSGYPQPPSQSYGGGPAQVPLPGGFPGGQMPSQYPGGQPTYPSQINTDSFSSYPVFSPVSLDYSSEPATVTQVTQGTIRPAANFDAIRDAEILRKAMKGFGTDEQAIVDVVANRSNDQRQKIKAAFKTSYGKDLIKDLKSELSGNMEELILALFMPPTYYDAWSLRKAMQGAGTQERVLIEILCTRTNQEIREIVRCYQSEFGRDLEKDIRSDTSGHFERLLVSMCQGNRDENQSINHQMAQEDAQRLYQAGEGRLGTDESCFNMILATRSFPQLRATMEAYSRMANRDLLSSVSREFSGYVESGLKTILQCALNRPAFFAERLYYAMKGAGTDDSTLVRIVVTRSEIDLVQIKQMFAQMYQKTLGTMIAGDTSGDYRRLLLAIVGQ
# Legend:
# ANXA2-Flag (human) = ANXA2-Flag (human) (UniProt P07355); experiment: co-IP
# ANXA7-Flag (human) = target: T1, ANXA7-Flag (human); experiment: co-IP
binder,measurement,setting,value
"grancalcin (protein, UniProt P28676 1-217) MAYPGYGGGFGNFSIQVPGMQMGQPVPETGPAILLDGYSGPAYSDTYSSAGDSVYTYFSAVAGQDGEVDAEELQRCLTQSGINGTYSPFSLETCRIMIAMLDRDHTGKMGFNAFKELWAALNAWKENFMTVDQDGSGTVEHHELRQAIGLMGYRLSPQTLTTIVKRYSKNGRIFFDDYVACCVKLRALTDFFRKRDHLQQGSANFIYDDFLQGTMAI",binding,ANXA2-Flag (human),binds
same,binding,ANXA7-Flag (human),binds
"CHMP4B (in the annexin immunoprecipitates of Fig. 8d) (protein, UniProt Q9H444 1-224) MSVFGKLFGAGGGKAGKGGPTPQEAIQRLRDTEEMLSKKQEFLEKKIEQELTAAKKHGTKNKRAALQALKRKKRYEKQLAQIDGTLSTIEFQREALENANTNTEVLKNMGYAAKAMKAAHDNMDIDKVDELMQDIADQQELAEEISTAISKPVGFGEEFDEDELMAELEELEQEELDKNLLEISGPETVPLPNVPSIALPSKPAKKKEEEDDDMKELENWAGSM",binding,ANXA2-Flag (human),binds
same,binding,ANXA7-Flag (human),binds
"sorcin (protein, UniProt P30626 1-198) MAYPGHPGAGGGYYPGGYGGAPGGPAFPGQTQDPLYGYFAAVAGQDGQIDADELQRCLTQSGIAGGYKPFNLETCRLMVSMLDRDMSGTMGFNEFKELWAVLNGWRQHFISFDTDRSGTVDPQELQKALTTMGFRLSPQAVNSIAKRYSTNGKITFDDYIACCVKLRALTDSFRRRDTAQQGVVNFPYDDFIQCVMSV",binding,ANXA7-Flag (human),binds
